Binding data for 1 substance are collected here from publication PMC2522270.

Protein sequences, listed by entry. Tags and fused reporters are not part of them. Residues count along the entry.
UniProt P02768, residues 25-609: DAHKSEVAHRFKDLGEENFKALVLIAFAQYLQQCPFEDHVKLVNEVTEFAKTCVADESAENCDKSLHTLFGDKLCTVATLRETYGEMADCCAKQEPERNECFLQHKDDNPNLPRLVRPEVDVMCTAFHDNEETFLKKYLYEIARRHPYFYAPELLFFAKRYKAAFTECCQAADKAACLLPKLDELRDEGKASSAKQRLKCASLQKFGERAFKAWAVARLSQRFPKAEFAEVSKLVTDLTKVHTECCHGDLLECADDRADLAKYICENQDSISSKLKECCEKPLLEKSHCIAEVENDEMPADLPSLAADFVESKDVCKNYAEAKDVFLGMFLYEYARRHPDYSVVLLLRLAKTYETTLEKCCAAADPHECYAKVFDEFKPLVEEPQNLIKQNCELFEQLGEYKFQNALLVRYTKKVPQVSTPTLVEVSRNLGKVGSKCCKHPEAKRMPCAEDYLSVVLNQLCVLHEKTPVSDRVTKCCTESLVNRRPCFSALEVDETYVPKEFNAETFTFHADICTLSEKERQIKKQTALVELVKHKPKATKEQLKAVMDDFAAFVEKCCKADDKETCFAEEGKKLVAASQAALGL

Results are given in words; binding and its absence hold for the method and conditions named. Binding seen in cells or lysates may run through a third protein. Binding can be weak; no strength is given.

This assay concerns the target albumin (human (endogenous in plasma)) (UniProt P02768). In words: co-sedimentation; only the binder purified.

Consider “M1 protein of Streptococcus pyogenes (recombinant) (from UniProt Q99XV0)”, for which the binding result was “binds”.
